Our source for the median seed-adjusted z-score values is PubChem BioAssay AID1347426 (Functional Genomics Laboratory (NCATS/FGL), 2020).

About 1,400 (4.5%) of roughly 31,000 sequences were called active.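 Rule for the calls: active = median seed-adjusted z-score above 1 or below -1; inactive = the rest.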 This is one part of the list.

This experiment is described as follows: Novel Modifiers of Survival Motor Neuron (SMN) Protein: Gene Identification via Genome-wide siRNA Screen.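 Note: luminescence tracks full-length SMN protein made from the SMN2 reporter.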 Particulars: HEK293T SMN2-luciferase reporter, siRNA knockdown, 72 h; actives lie on both sides. Summed up: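 siRNA screen, 10418 genes ×3 siRNAs; 1 pmol/well, lipid reverse transfection into HEK293T SMN2-luc reporter line. 72 h, 37 °C, 5% CO2; ONE-Glo readout. Data: neg-ctrl normalized, log10, MAD; hit = MAD >1.0 or < -1.0.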
For orientation: A reporter such as luciferase makes a cellular process visible.
With GGAGAUCUAUUACCAUGGATT against ARRB1, the median seed-adjusted z-score was inactive: -0.205.
As for GGAAGAAGAUCAUAGAGAATT against TRPV4, the median seed-adjusted z-score is inactive: -0.73.
In the case of GAAAGAGUACGAGAAUCUATT against TRAIP, the median seed-adjusted z-score was inactive: -0.018.
To AGACAGACUCGAAACAGAATT against WDR31 belongs inactive: 0.796; to GGACGAGACCUACCGAAAATT against LSM11, inactive: -0.873; to CGUACAAAGAUGACGCGGATT against SYNJ2, inactive: 0.0202.
Regarding GAAGGAAGAGUAUCAAAAATT against CA12, the median seed-adjusted z-score was inactive: -0.0119.
To AGAUUUCGCAGUUCAGGAATT against COQ7 belongs inactive: 0.159; to CGAUCAACUCCUUAAAGGATT against FLRT2, inactive: -0.00573; to CGAGGCUCAUCAUAUCUCATT against RAVER2, inactive: -0.258.
The same measure for AACUGAAAUCGGUAAAGGATT against XRCC3: inactive: 0.332; for CCAGGACACUAGAGCAAGATT against DNAJC17: inactive: 0.751.
To GGUACUUCAUAGAUUGGAATT against CDH12 belongs inactive: -0.0663.
Regarding AGGUGAUCAUGGAUCGUCATT against TRIM63, the median seed-adjusted z-score was inactive: -0.376.
To GCAUCGAGAUCCACGAAGATT against PITPNM3 belongs inactive: -0.0378.
In the case of CUGAAAAAGUGUUAGAUGATT against HTATSF1, the median seed-adjusted z-score was inactive: -0.411.
Regarding GAAAUGAAAUUGGAGAUUATT against PCDHGC3, the median seed-adjusted z-score was inactive: 0.
The same measure for CCAGCUCUUCCAUACAAUATT against RAB9A: inactive: 0.247; for ACUUUGUACUUUUGCCCAATT against TLX3: inactive: 0.0771.
The same measure for CCGCUGGUGUACUACUUUATT against LPAR5: inactive: 0.0711; for GCACCUUCCGCGUCAUGUUTT against BTBD2: inactive: 0.0303.
The same measure for GAGUGGACUGGGCAAAUCATT against 3-Sep: inactive: 0.0683; for GCUUCACCAUCGAAUCCAATT against FLT4: inactive: -0.861.
Consider CCGCUGCAAGGGUAGUAUATT against CDK9, for which the median seed-adjusted z-score was inactive: 0.901.
Take GGAUGAUGUUUGUGCGCAATT against PRDM4: the median seed-adjusted z-score is inactive: 0.0804.
To GCAUAUAACCAAAGGCGGATT against HSD17B4 belongs inactive: 0; to GCAUAUCCUACUUACCCAATT against DAZL, inactive: -0.441; to CGAGGACGUGGGUCAGAAATT against ITPKA, inactive: -0.136.
The same measure for GGAUGUGAUUGAGCAGUAUTT against KCNQ3: inactive: 0.313.
To GGCUGAUUCUGGAAGUUCUTT against SPP1 belongs inactive: -0.293; to GCAGCAAGCUCUGUCCCAATT against PEF1, inactive: 0.651; to CCGUACAAUUGUAAAGAAUTT against ZNF230, inactive: -0.203.
As to GGCAGAUCCUGACCUUUGATT against PRMT7, the median seed-adjusted z-score is inactive: 0.204.
The same measure for GGACAACUAUGGUAAGAAATT against TCF7L1: inactive: -0.251; for GCAUGGUCUUUCUACUUGUTT against TUBB2A: active: 1.03; for GCACAAUAAGAUCCUAUAUTT against B3GNT1: inactive: 0.0931.
Consider GGGCUUGUCUUCAAUGUUATT against SLCO1B1, for which the median seed-adjusted z-score was inactive: 0.127.
The same measure for AGGAGAACAUGAUCGUGUATT against NADK: inactive: -0.201; for GUACGAGUGUUCUCCAGAATT against CREB3L3: inactive: -0.076; for GCAUGUGCUUUAAACACCATT against TRIM52: inactive: 0.00966.
The same measure for GUCAGUUACAGAUUACCUATT against MTMR7: inactive: -0.207; for CAUCCGUUCCAUACAUGUATT against AEBP2: inactive: -0.212; for GCAUGUCCCUCAAGGUGCATT against ZBTB47: inactive: 0.
To GGUUCGAGCAGCUCAAGAATT against GLI2 belongs inactive: -0.796.
As to UGGAAGAACAUGAAUAUAATT against ACSM2A, the median seed-adjusted z-score was inactive: -0.178.
The same measure for GAGUCGCAUUUCAAUUAGATT against PDK1: inactive: -0.00904.
CAUUUAAACCGAAACUCUATT against RBBP5: the median seed-adjusted z-score was inactive: 0.169.
In the case of GCAACAUGAUGAGUAAAGATT against PANK1, the median seed-adjusted z-score is inactive: -0.329.
The same measure for GGCCUCGCAUUGUAUAUGATT against LRRK1: inactive: 0.257; for GAGCAAUGACUGUAAGUAUTT against SLC26A7: inactive: 0.561; for ACUAACAUCCCAGACUUUATT against VWA1: inactive: 0.289.
With GAAUAUGUGGGCUAAGAAATT against COX6C, the median seed-adjusted z-score was inactive: -0.0449.
To GCAAAUAACAUAUGCUGUUTT against WFDC10A belongs inactive: -0.439; to GGAAGCUACUGAACCCUCATT against DGKQ, inactive: -0.0985; to CACUCGUUCCGGUUCCUUUTT against ZNF439, inactive: -0.26.
In the case of ACGGCUACUUCAACGAGAATT against NPFFR1, the median seed-adjusted z-score is inactive: -0.613.
For the sequence GGGAGAUCACGUUCCUGAATT against COMP, the median seed-adjusted z-score was inactive: 0.331.
Regarding GAGAGAUACCAGACCAUCATT against RAB15, the median seed-adjusted z-score was inactive: -0.616.
The same measure for CAAGUCACCUGUUACCUCATT against APOBEC3H: inactive: 0.256; for CCGAAAUUCAAUUAACUAUTT against BMPR2: inactive: 0.
In the case of GAACAAUUGUAACGAAUGATT against PITPNB, the median seed-adjusted z-score is inactive: 0.57.
To CCUUCCCUCUACACCAUCATT against COPZ2 belongs active: -1.23; to AGAGAAUUCUCUUCCAACATT against GSX2, inactive: -0.621; to GGCAACUCAUAGUACCGUATT against ATP13A3, inactive: -0.619.
For CGGGAGUUUUUGGAACUGATT against MMS19L, the median seed-adjusted z-score was inactive: 0.898.
Take CUCUCUAUCUAAUAGGAUUTT against CDS2: the median seed-adjusted z-score is inactive: -0.811.
As to CCAUGCACUUUAUAUGGAUTT against DGAT2L3, the median seed-adjusted z-score is inactive: 0.247.
To GAACAUCGUUAUAAGUUGATT against CNTN3 belongs inactive: 0.732; to GUUUCAUUGUAGUGGUUAATT against CXCR6, inactive: 0.71; to CCACCUAUCAGAUUCGAAUTT against PIK3R4, inactive: -0.502.
To GGUUCUAUAGCAGACAAUATT against LOC81691 belongs inactive: -0.285; to UCCACAUUCCUGUUUGUAATT against JUND, inactive: -0.334; to GCUCAUUCCAGGUCAAUCATT against MLL3, inactive: -0.248.
Regarding GCAUGGAUCAUCUACAAAATT against UTP6, the median seed-adjusted z-score was inactive: -0.253.
Take CUACGACGGUGAUAUUGGATT against HDAC2: the median seed-adjusted z-score was active: -1.27.
The same measure for AGACAAUAUUGGAAGAGGATT against DAB1: inactive: 0.307.
GGAAAGCAAUAAAAGUUAUTT against TAAR6: the median seed-adjusted z-score was inactive: -0.124.
With GCAUCUACGGGCUCAAGUATT against ZNF512B, the median seed-adjusted z-score is inactive: 0.212.
To AGAGGAUCCACACCACAGATT against ZNF324B belongs inactive: 0.176; to GGCUGGAAAGGUUACUUCATT against SENP3, inactive: 0.543; to GGAAGAAGCUUGUACGUGATT against AKAP13, inactive: 0.654.
The same measure for GCUUGAGUUUUGUACGGUUTT against XRCC1: inactive: 0.0431.
The same measure for CCUGCGCCUUUGUGACAUUTT against TRMT2A: inactive: -0.588; for GGAUGGAGCAGGUUAAAGATT against HES2: inactive: -0.186; for AAUCGAUCCUCAAUCCUUATT against ZNF676: inactive: -0.499.
Regarding GCAUCUACCGGAUCCUGAUTT against DDX49, the median seed-adjusted z-score was inactive: 0.0816.
The same measure for CCCAAAUUCUUGACCGAGATT against PCDHGA9: inactive: -0.125.
To AGCCGACAGUGGUGCACUATT against PLA2G15 belongs inactive: 0; to AGCUUACAGUGCAAAGACATT against MAPK8IP1, inactive: 0.576.
As to GGAGCUUCGAAGAUGGAAATT against LARGE, the median seed-adjusted z-score is inactive: -0.436.
Turning to CCCUUUGUAUUGUAGAUAATT against CEBPD, the median seed-adjusted z-score was inactive: -0.101.
To GGUACAAGAUGGUCAUUGATT against ABCC8 belongs inactive: 0.24; to GUCCUGAAAAGAUAUAUGATT against NDUFB5, inactive: -0.122.
In the case of CAAGUACAGAUGAAGCUCATT against MFSD8, the median seed-adjusted z-score was inactive: -0.461.
To GGAUGGUGGCGUCCAAGAUTT against PSMB10 belongs inactive: 0.00939.
The same measure for GGACAAUUCGGCAGACUAUTT against STX4: inactive: 0.759; for GAUACGGUAUGAGUUUAAATT against NOS1AP: inactive: 0.00192.
The same measure for UGUGCUCCAUCCCACCCAATT against CARHSP1: inactive: 0.384; for GGCUGAUAGGGAUCAAGGATT against TBX10: inactive: 0.175.
On to GCCUCAAUCCCUACGGUUATT against NKX2-5, for which the median seed-adjusted z-score is inactive: 0.719.
As to CAAGCAUCGUCAUCAUCUATT against PLAG1, the median seed-adjusted z-score was inactive: 0.859.
The same measure for GGGCUUUCAUGUUACACGATT against FBN1: inactive: 0.
As for GCAACUCUUGCUAAUCAUATT against ZNF680, the median seed-adjusted z-score was inactive: 0.142.
For GAGUUAAGGAGGUAGAUGATT against SNX5, the median seed-adjusted z-score was inactive: -0.141.
The same measure for CAACGACAGGAAUGACAAUTT against ARHGEF7: inactive: 0.185; for CAGAAUAUCUGGAACAUCATT against GSTK1: inactive: 0.234; for GGAUAGUAGUGGACUCAGATT against RBM26: inactive: -0.967.
